Data as given in PubChem BioAssay AID493246 (Drosophila RNAi Screening Center, 2011)

- Purpose: 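Genes fly cells need to grow and stay alive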 (primary screen)
- System: Drosophila Kc and S2R+ cells
- Reagents: long dsRNA against Drosophila genes
- Detection: 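Cell number per well after knock-down, printed as raw plate values; calls were based on per-plate z-scores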
- Direction: Kc cell number and S2R+ cell number: higher = more cells remaining
- Hit rule: 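Counted as a hit if cell number falls by a z-score of at least 3 within its plate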
In all, the deposit lists about 21,000 reagents; shown is a random part of those with a known target gene and a result. Of all reagents, 429 (2%) are marked active. 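Values are raw and not normalised between plates; calls rest on per-plate z-scores that were not deposited.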 Names joined by + are all predicted targets of the reagent. The record does not give: the amount of reagent, the time to read-out.

TotA showed Kc cell number, rep 1 = 1.36e6; Kc cell number, rep 2 = 1.34e6; S2R+ cell number, rep 1 = 9.84e5; S2R+ cell number, rep 2 = 1.09e6; inactive. Depletion of CG12061 came out at: Kc cell number, rep 1 = 1.57e6; Kc cell number, rep 2 = 1.58e6; S2R+ cell number, rep 1 = 1.11e6; S2R+ cell number, rep 2 = 1.26e6; inactive. Depletion of CG1806 resulted in: Kc cell number, rep 1 = 5.90e5; S2R+ cell number, rep 1 = 8.61e5; inactive. pch2 gave Kc cell number, rep 1 = 1.39e6; Kc cell number, rep 2 = 1.49e6; S2R+ cell number, rep 1 = 1.05e6; S2R+ cell number, rep 2 = 1.19e6; inactive. psidin showed Kc cell number, rep 1 = 1.41e6; Kc cell number, rep 2 = 1.34e6; S2R+ cell number, rep 1 = 1.09e6; S2R+ cell number, rep 2 = 1.19e6; inactive. Against polo, the entry reads Kc cell number, rep 1 = 1.37e6; Kc cell number, rep 2 = 1.52e6; S2R+ cell number, rep 1 = 1.04e6; S2R+ cell number, rep 2 = 1.17e6; inactive.

For CG33271, the entry reads Kc cell number, rep 1 = 1.19e6; Kc cell number, rep 2 = 1.23e6; S2R+ cell number, rep 1 = 1.04e6; S2R+ cell number, rep 2 = 1.11e6; inactive. Against fdl, the entry reads Kc cell number, rep 1 = 1.59e6; Kc cell number, rep 2 = 1.59e6; S2R+ cell number, rep 1 = 1.19e6; S2R+ cell number, rep 2 = 1.39e6; inactive. Knock-down of Kaz1-ORFB + Kaz1-ORFA gave: Kc cell number, rep 1 = 1.24e6; Kc cell number, rep 2 = 1.14e6; S2R+ cell number, rep 1 = 9.73e5; S2R+ cell number, rep 2 = 1.25e6; inactive. CG1622 scored Kc cell number, rep 1 = 6.56e5; S2R+ cell number, rep 1 = 8.85e5; inactive. For His4r, the entry reads Kc cell number, rep 1 = 7.96e5; Kc cell number, rep 2 = 8.81e5; S2R+ cell number, rep 1 = 3.98e5; S2R+ cell number, rep 2 = 4.56e5; active. Silencing of CG13220 resulted in: Kc cell number, rep 1 = 1.47e6; Kc cell number, rep 2 = 1.49e6; S2R+ cell number, rep 1 = 1.23e6; S2R+ cell number, rep 2 = 1.27e6; inactive.

nkd showed Kc cell number, rep 1 = 1.64e6; Kc cell number, rep 2 = 1.94e6; S2R+ cell number, rep 1 = 1.16e6; S2R+ cell number, rep 2 = 1.32e6; inactive. After knock-down of TBC1D5 the results were Kc cell number, rep 1 = 1.75e6; Kc cell number, rep 2 = 1.86e6; S2R+ cell number, rep 1 = 1.49e6; S2R+ cell number, rep 2 = 1.61e6; inactive.

Reagents listed above with an active call (1):
His4r — Kc cell number, rep 1 = 7.96e5; Kc cell number, rep 2 = 8.81e5; S2R+ cell number, rep 1 = 3.98e5; S2R+ cell number, rep 2 = 4.56e5; outcome = active
